## Results of single-concentration screens

Sequences of proteins named here, by UniProt entry; tags and fusion partners are left off.
UniProt P9WNZ1, whole entry: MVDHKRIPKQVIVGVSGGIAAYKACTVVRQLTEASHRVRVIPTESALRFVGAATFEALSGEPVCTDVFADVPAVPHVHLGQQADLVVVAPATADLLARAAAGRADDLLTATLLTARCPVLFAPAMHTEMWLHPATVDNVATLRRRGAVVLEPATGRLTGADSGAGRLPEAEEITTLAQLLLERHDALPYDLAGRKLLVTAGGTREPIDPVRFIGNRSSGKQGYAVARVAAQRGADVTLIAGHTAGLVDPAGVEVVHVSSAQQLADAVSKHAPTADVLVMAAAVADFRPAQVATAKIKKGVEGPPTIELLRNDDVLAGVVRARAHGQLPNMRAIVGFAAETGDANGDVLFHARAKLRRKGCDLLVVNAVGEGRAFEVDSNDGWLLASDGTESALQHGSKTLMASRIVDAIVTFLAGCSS
UniProt P9WFT3, whole entry: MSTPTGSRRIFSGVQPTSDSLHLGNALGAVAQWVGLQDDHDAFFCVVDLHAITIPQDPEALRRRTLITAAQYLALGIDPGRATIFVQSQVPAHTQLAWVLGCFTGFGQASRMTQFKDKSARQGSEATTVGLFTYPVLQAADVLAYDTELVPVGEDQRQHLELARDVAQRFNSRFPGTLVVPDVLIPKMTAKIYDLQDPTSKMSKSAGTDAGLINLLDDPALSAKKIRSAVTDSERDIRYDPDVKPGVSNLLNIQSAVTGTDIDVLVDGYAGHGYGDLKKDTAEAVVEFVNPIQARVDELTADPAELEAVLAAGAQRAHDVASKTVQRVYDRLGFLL

Data taken from ChEMBL document CHEMBL3988442, “University of Dundee, Small-Polar-MMV Screening Library” (2021).

CoaBC: 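Enzyme assay of CoaBC with a phosphate dye (Biomol Green) read at 650 nm. Target: Coenzyme A biosynthesis protein CoaBC, Mycobacterium tuberculosis (UniProt P9WNZ1). Concentration: 30 µM. Higher reads as stronger inhibition, judged from the few compounds that gave an IC50. Most strong results did not repeat in a second test. Size under these conditions: about 67,000 compounds, about 40 of them at 50% or above in at least one test.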
MtTrpRS: 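Enzyme assay of tryptophanyl-tRNA synthetase; the read-out is not stated. Target: Tryptophan-tRNA ligase, Mycobacterium tuberculosis (UniProt P9WFT3). Compounds at 10 µM. Higher most likely means stronger inhibition; the record gives no direction and few retests gave an IC50. About 65,000 compounds were tested under these conditions; 0.098% (about 64) showed 50% or more at least once.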

Values are the deposited “Percent Effect”, in %.
How 0% and 100% were set is not recorded. Most values in the screen are low, and negative values occur.
The compounds are a random part of those screened.
A dash means the value is not listed here; it may have been measured.

SMILES,CoaBC,MtTrpRS
O=C(NCC1(O)CCSCC1)c1nccc2ccccc12,2.233%,-4.757%
CN(C)CCOCc1nnc2n1CCN(Cc1ccco1)CC2,-1.603%,-3.989%
COCC(=O)N1CCc2[nH]c(=O)ccc2C1,3.361%,-2.573%
O=C(NCc1ccccc1F)C1=NOC2(CCNC2)C1 (stereo not drawn),-5.882%,-4.185%
CN1CCN(C(=O)c2n[nH]c3c2CN(Cc2nccs2)CC3)CC1,2.336%,-9.091%
Cc1ncsc1C(=O)N(Cc1ccccn1)C1CC1,-1.316%,75.13%
CCc1cnc(N2C[C@H](OCc3csc(C)n3)[C@H]3COC[C@H]32)nc1,-,1.187%
CCC(c1ccc(F)cc1F)S(=O)(=O)CCO (stereo not drawn),6.561%,-0.2681%
CN(Cc1cnn(C)c1)C(=O)CCS(=O)(=O)c1ccc2c(c1)OCCO2,5.506%,5.913%
CS(=O)(=O)N1CCC(Nc2ccnc3ccc(Cl)cc23)CC1,-11.78%,0.5201%
Cc1ccc(F)c2c1CCCN2C(=O)Cc1c(C)nn(C)c1C,-3.19%,-5.146%
O=C1CC2(CCN(C(=O)c3ccc4c(c3)CCCO4)C2)C(=O)N1 (stereo not drawn),-11.07%,0.4656%
CCc1nc(NC(=O)N(C)Cc2ccoc2)nn1C,2.057%,-4.931%
Fc1ccc(N2CCC3(CC2)CC(OCc2cccnc2)CO3)cc1 (stereo not drawn),-41.23%,-1.48%
O=c1n(CC2CC2)nc(C2CCNCC2)n1Cc1ccccc1,9.921%,4.617%
CNc1oc(-c2cc(S(=O)(=O)N3CCCCCC3)c(C)o2)nc1C#N,-0.1346%,-4.422%
CC(CNC(=O)CCc1ccco1)N1CCc2sccc2C1 (stereo not drawn),-1.965%,-2.082%
Cc1occc1C(=O)N1CCC[C@]2(C[C@@H](OCc3ccncc3)CO2)C1,-1.142%,-0.9444%
Cc1cn2c(n1)CCC(NC(=O)CCCOCc1ccccc1)C2 (stereo not drawn),8.678%,-2.245%
Cc1occc1C(=O)N1CCCC2(CCN(CCN3CCCC3)C2=O)C1 (stereo not drawn),-10.45%,4.391%
O=C(Cc1cccnc1)N1CCCC(c2cc(C(F)(F)F)[nH]n2)C1 (stereo not drawn),-0.2433%,2.397%
CC(=O)N1CCCN(C(=O)c2ccc(=O)n(C)c2)c2ccccc21,2.551%,-5.962%
CCc1nc(N2CCN(CCOC)CC2)c2cnn(C)c2n1,3.96%,-1.729%
O=C(NC1CC1)[C@H]1CC[C@@H]2[C@@H](CCN2c2ncc(F)cn2)O1,2.727%,3.065%
Fc1cccc(Nc2nc(N3CCCC3)nc3c2CNCC3)c1,6.651%,-7.948%
c1ccn2c(SCC3CN=C(N4CCOCC4)S3)ncc2c1 (stereo not drawn),-2.211%,-1.795%
COCCN1C(=O)C2(CCN(CC3CC3)CC2)c2ccccc21,3.342%,-
COc1ccc(-c2csc(N)c2C#N)cc1OC,3.096%,-0.402%
N#Cc1ccc(C(=O)N2CC[C@H]3[C@@H]2CCC(=O)N3c2ccccc2)cc1,1.295%,-5.463%
Cc1nc(C)c(CC(=O)N2CCC(Oc3ccccc3)CC2)c(=O)[nH]1,0.7371%,0.8215%
COCCC1(C(=O)O)CCCN(CCc2ccccc2)C1 (stereo not drawn),2.404%,-3.653%
Cc1nc2c(c(C)c1CC(=O)NCc1cccs1)c(=O)[nH]n2C,4.439%,-0.3762%
CC(NC(=O)c1cccs1)(C(N)=O)c1cccc(C(F)(F)F)c1 (stereo not drawn),2.945%,3.342%
CN(Cc1ccsc1)C(=O)c1cccc(NS(C)(=O)=O)c1,-2.651%,-1.679%
O=C1O[C@@H]2CN(c3ccncc3)C[C@@H]2N1CCCc1ccc(F)cc1,-34.55%,-2.379%
Cc1ccc(CN2CC[C@H]3C(=O)N(c4cccnc4)CCO[C@H]3C2)o1,7.5%,1.904%
O=C1CCCN1CCCN1CCCC(Cn2cncn2)C1 (stereo not drawn),0.3205%,-2.91%
COCCCNC(=O)C1CCN(CC2(O)CCC(C)CC2)CC1 (stereo not drawn),11.35%,3.216%
CN1CCCC(CCC(=O)N2CCc3sc(C(=O)N(C)C)cc3C2)C1 (stereo not drawn),1.22%,-2.107%
CCC(C)(N)c1nc(C(C)C)cc(=O)[nH]1 (stereo not drawn),8.894%,2.437%
CN1CCOC2(CCCN(C(=O)C3CCCCC3)C2)C1 (stereo not drawn),0.2545%,-2.668%
Cc1ccc(CN2CC3(CCNCC3)CCC2=O)c(F)c1F,-17.06%,-2.687%
NC(=O)NC(=O)CCn1ccc(-c2ccsc2)n1,-1.789%,-2.75%
CC(=O)N(Cc1noc(C2CC2)n1)C1CCN(Cc2cccnc2)C1 (stereo not drawn),8.769%,-2.818%
Cc1cc(C2CCCN2C(=O)c2ccc(OCC(N)=O)cc2)no1 (stereo not drawn),3.2%,-5.456%
Cc1nn(C)c2nc(N3CCCCC3c3nccs3)sc12 (stereo not drawn),0.3686%,-0.08211%
Cc1nn(C2CCS(=O)(=O)C2)c(O)c1Cc1ccc(Br)cc1 (stereo not drawn),5.303%,1.891%
CC(C)NC(=O)CCNC(=O)CCc1cc(Cl)cs1,6.198%,0.3621%
COc1cccc(CN2CCOC(c3cnccn3)C2)c1F (stereo not drawn),2.843%,-1.098%
c1cnc(N2CCCC3(CCN(CC4CCC4)C3)C2)nc1 (stereo not drawn),3.807%,-1.893%
O=C(c1ccccc1)N1CCN(C2CCc3ccc(F)cc32)CC1 (stereo not drawn),5.769%,1.499%
COc1ccc(C(=O)N2CCC(Nc3cccnn3)CC2)c(F)c1,5.725%,-6.518%
CNS(=O)(=O)CC(=O)NC(C)Cc1ccccc1Br (stereo not drawn),-3.137%,-3.549%
Cc1nc(C)n(CC(=O)N2CCCC(c3cc4ccccc4cn3)C2)n1 (stereo not drawn),0.1236%,-7.843%
Cc1nnc([C@@H]2C[C@H]3CN(C4CCC4)C[C@H]3O2)[nH]1,-,-0.7551%
O=C(c1ccc(C2CCCN2C(=O)c2cscn2)s1)N1CCSCC1 (stereo not drawn),3.928%,1.75%
CCc1ncc(CN2C[C@@H]3C[C@@H](O)CN3C[C@@H]2Cc2ccccc2)cn1,-0.6849%,-3.771%
Cc1[nH]c2ccccc2c1-c1ccnc(N[C@@H](CO)C(C)C)n1,6.145%,-
Cc1cc(CN2C[C@@H]3COC[C@@H](C(=O)N4CCCCO4)[C@@H]3C2)no1,1.5%,-1.095%
Cc1ncsc1CN1C[C@H](C(=O)NC2CCCC2)[C@@H]2CCO[C@@H]2C1,2.589%,-0.4504%
COC1CCN(c2ccc(NC(=O)Cn3cccc3)cc2)CC1,2.29%,-1.242%
O=C(N[C@@H]1CN(Cc2ccccc2)C[C@@H]2CCCO[C@@H]21)C1CC1,0.1269%,3.673%
Cc1nnc(N2CCCC3(CN(Cc4ccc(F)cc4)CCO3)C2)o1 (stereo not drawn),-1.11%,-4.655%
CC(C)c1cc(NCC2(CO)CCCC2)ncn1,0.7353%,-0.4938%
Cc1cc(C)c(CNC(=O)NCc2nnc3n2CCCC3)c(=O)[nH]1,3.926%,-7.802%
Cc1cc(C(=O)N2CC[C@H](N3CCN(C)CC3)[C@H](CCCO)C2)n(C)n1,-4.551%,-0.3564%
Cc1cc(-n2cncn2)ccc1C(=O)N(CC(F)(F)F)C(C)C,4.435%,-5.932%
CC(C)(C)c1nnc(CN(Cc2cccs2)CC2CCCO2)o1 (stereo not drawn),5.447%,-2.089%
Cc1nc(CN(C)C2CCN(Cc3cccc4c3OCCO4)C2)no1 (stereo not drawn),4.961%,21.19%
O=C1[C@H]2CC[C@H](CN(c3ncnc4ccsc34)C2)N1CC1CC1,4.177%,1.718%
COc1ccccc1CC(=O)NS(=O)(=O)c1cncc(Br)c1,0%,-0.7194%

Repeated from the top, 4 entries:

- O=C(NCC1(O)CCSCC1)c1nccc2ccccc12 : CoaBC: 2.233%; MtTrpRS: -4.757%
- CN(C)CCOCc1nnc2n1CCN(Cc1ccco1)CC2 : CoaBC: -1.603%; MtTrpRS: -3.989%
- COCC(=O)N1CCc2[nH]c(=O)ccc2C1 : CoaBC: 3.361%; MtTrpRS: -2.573%
- O=C(NCc1ccccc1F)C1=NOC2(CCNC2)C1 (stereo not drawn) : CoaBC: -5.882%; MtTrpRS: -4.185%